PubChem BioAssay AID743121 | NCATS – 2013

- Aim: 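Partners whose loss is lethal together with topoisomerase I blockade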 (primary screen)
- Cells: MDA-MB-231 cells, a human breast cancer line
- Reagent: single siRNA against human genes, 20 nM siRNA (0.8 pmol per well)
- Duration: 120 h (drug added 48 h after transfection, read 72 h later)
- Challenge: camptothecin 20 nM (about EC30) for 72 h; vehicle 0.1% DMSO in parallel plates
- Detection: 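CellTiter-Glo ATP signal, scaled to control siRNA as percent viability; sensitisation given as log2 of untreated divided by camptothecin-treated viability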
- Scale: log2 vehicle/camptothecin viability: higher = stronger sensitisation to camptothecin; viability with camptothecin and viability without drug: higher = more viable cells
- Call rule: 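Each gene scored by redundant siRNA activity (RSA) over its individual siRNA ratios; a gene is called active at p < 0.001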
Here is an unselected part of about 26,000 reagents tested. In the full data, 167 (0.63%) were called active. 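Calls are per gene from RSA p-values that are not deposited; an individual active-marked siRNA can sensitise only weakly.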 Entries without a mark were called inactive. The numbers tell different reagents against one gene apart.

no.	target gene	reagent	log2 vehicle/camptothecin viability	viability with camptothecin (% of control)	viability without drug (% of control)
1	BMP15	1	-0.255	71.2	59.7
2	BMP15	2	-0.214	106	91.1
3	BMP15	3	0.232	81.5	95.6
4	BMP15	4	0.382	64	83.4
5	TYMS	1	-0.117	111	103
6	TYMS	2	0.039	98	101
7	TYMS	3	-1.06	118	56.4
8	TYMS	4	-0.527	66.8	46.3
9	SYNJ1	1	-0.195	103	89.9
10	SYNJ1	2	-0.0866	28.2	26.5
11	SYNJ1	3	0.22	80.2	93.5
12	SYNJ1	4	0.514	23.1	33
13	RPL27	1	-0.533	46	31.8
14	RPL27	2	-0.194	23.4	20.4
15	RPL27	3	-0.562	33	22.4
16	RPL27	4	-0.354	40.3	31.6
17	CRLF1	1	-0.395	128	97.2
18	CRLF1	2	-0.112	84.1	77.8
19	CRLF1	3	-0.0609	85	81.4
20	CRLF1	4	-0.034	101	98.5
21	PCSK4	1	0.0231	70.4	71.5
22	PCSK4	2	-0.156	110	98.7
23	PCSK4	3	-0.347	72.9	57.3
24	PCSK4	4	-0.102	109	101
25	TRIM61	1	-0.32	78.8	63.1
26	TRIM61	2	0.0779	52.5	55.4
27	TRIM61	3	-0.105	67.3	62.6
28	MAP3K21	1	-0.327	62.1	49.5
29	MAP3K21	2	-0.332	99.7	79.2
30	MAP3K21	3	-0.111	103	95.5
31	MAP3K21	4	-0.114	95.2	87.9
32	GLB1	1	0.109	25.6	27.6
33	GLB1	2	-0.0449	109	106
34	GLB1	3	-0.173	62.3	55.2
35	GLB1	4	-0.0484	41.9	40.5
36	SIX3	1	-0.409	47.5	35.7
37	SIX3	2	0.0788	75.2	79.5
38	SIX3	3	-0.0105	98.2	97.4
39	SIX3	4	-0.193	91.8	80.3
40	SPOUT1	1	-0.233	90.6	77
41	SPOUT1	2	-0.266	68	56.6
42	SPOUT1	3	-0.29	58.5	47.8
43	SPOUT1	4	-0.181	92.2	81.3
44	CYP2D6	1	0.0775	93.5	98.6
45	CYP2D6	2	-0.103	90.5	84.2
46	NTN1	1	0.286	46.3	56.5
47	NTN1	2	-0.258	116	96.9
48	NTN1	3	-0.247	44.4	37.5
49	NTN1	4	-0.612	77.5	50.7
50	VEGFD	1	-0.0317	99.6	97.4
51	VEGFD	2	-0.424	71.6	53.3
52	VEGFD	3	-0.0225	67.6	66.5
53	VEGFD	4	0.0914	29.4	31.3
54	CCL4L2	1	0.017	67.1	67.9
55	CCL4L2	2	0.00593	93.6	94
56	ABCA7	1	0.0983	46.8	50.1
57	ABCA7	2	-0.0288	96.7	94.8
58	ABCA7	3	-0.383	89.5	68.6
59	ABCA7	4	0.621	70.9	109
60	PPP1R11	1	0.13	79.2	86.6
61	PPP1R11	2	-0.275	92.8	76.7
62	PPP1R11	3	-0.28	81.8	67.4
63	PPP1R11	4	-0.112	70.5	65.3
64	AMIGO2	1	-0.363	103	80
65	AMIGO2	2	-0.109	58.9	54.6
66	AMIGO2	3	-0.245	80.2	67.7
67	HAVCR2	1	-0.488	122	87.2
68	HAVCR2	2	0.103	88.4	94.9
69	HAVCR2	3	-0.0744	73.2	69.6
70	HAVCR2	4	0.532	8.69	12.6
71	GLG1	1	0.342	43.1	54.6
72	GLG1	2	-0.0352	97.3	95
73	GLG1	3	0.124	45.8	49.9
74	GLG1	4	-0.08	100	94.7
75	FXYD2	1	-0.347	80.3	63.2
76	FXYD2	2	-0.347	61.9	48.7
77	FXYD2	3	-0.148	111	100
78	FXYD2	4	-0.264	102	84.7
79	PAX7	1	-0.236	82.9	70.3
80	PAX7	2	0.17	90.8	102
81	PAX7	3	-0.262	65.6	54.7
82	PAX7	4	-0.372	72.7	56.2
83	TMEM266	1	-0.264	86	71.7
84	TMEM266	2	-0.0592	90.3	86.7
85	TMEM266	3	-0.329	92.9	74
86	TMEM266	4	-0.298	103	83.5
87	IL18BP	1	-0.575	115	77.4
88	IL18BP	2	-0.556	73.5	50
89	IL18BP	3	-0.0288	68.9	67.5
90	IL18BP	4	0.19	80.6	91.9
